These are yes or no findings as the source states them, for the method shown. In cells and extracts the contact can be indirect. For some assays here: A result given as binding can be weak or reduced; the word gives no strength.
How the values were obtained:
[1] = molecular target: T1, Boc (bioregional Cdon-binding protein), endogenous (mouse (endogenous in NIH3T3)) (UniProt Q6AZB0); assay: co-IP; NIH3T3/Cas9 Ptch1 KO cells transfected with mouse Ptch1, recombinant Shh (200 ng/mL) added for 24 h; Shh detected in the immuno-complexes by Western blot; only the binder purified
T1 sequence: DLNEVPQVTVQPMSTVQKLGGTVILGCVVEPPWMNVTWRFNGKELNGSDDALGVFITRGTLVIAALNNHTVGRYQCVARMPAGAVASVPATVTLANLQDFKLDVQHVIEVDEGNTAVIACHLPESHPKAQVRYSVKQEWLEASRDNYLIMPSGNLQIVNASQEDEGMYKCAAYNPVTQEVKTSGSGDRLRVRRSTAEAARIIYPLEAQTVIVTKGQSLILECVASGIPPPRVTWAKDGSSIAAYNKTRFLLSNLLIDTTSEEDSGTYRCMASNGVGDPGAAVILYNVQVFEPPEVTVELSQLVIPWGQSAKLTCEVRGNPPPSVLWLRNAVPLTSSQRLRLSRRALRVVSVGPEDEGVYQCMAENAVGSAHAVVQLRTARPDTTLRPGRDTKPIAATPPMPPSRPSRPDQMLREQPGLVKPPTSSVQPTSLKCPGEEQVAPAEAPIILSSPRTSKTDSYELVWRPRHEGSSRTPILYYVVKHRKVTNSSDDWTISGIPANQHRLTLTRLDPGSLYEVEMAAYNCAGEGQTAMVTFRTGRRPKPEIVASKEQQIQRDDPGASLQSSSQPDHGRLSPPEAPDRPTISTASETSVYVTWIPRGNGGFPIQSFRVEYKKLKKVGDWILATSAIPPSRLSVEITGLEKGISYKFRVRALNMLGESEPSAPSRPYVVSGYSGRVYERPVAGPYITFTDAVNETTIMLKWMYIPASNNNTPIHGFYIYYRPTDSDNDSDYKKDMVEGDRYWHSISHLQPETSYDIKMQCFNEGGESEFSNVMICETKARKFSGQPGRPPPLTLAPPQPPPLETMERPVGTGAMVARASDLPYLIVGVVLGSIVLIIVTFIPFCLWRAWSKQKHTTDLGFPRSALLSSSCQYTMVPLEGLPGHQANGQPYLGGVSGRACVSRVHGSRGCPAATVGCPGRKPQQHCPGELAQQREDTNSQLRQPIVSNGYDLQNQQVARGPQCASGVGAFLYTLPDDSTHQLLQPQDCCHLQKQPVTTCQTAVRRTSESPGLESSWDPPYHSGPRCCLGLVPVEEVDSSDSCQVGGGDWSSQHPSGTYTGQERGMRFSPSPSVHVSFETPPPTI

[2] = molecular target: T1, Boc (bioregional Cdon-binding protein), endogenous (mouse (endogenous in NIH3T3)); assay: co-IP; NIH3T3/Cas9 Ptch1 KO cells transfected with mouse Ptch1, recombinant Shh (200 ng/mL) added for 40 min; Shh detected in the immuno-complexes by Western blot; only the binder purified

binding [1]: no binding (only after Shh for 24 h)
binding [2]: binds
Substance: recombinant Shh N-terminal peptide (ligand)
